Test results taken from the supplement of paper PMC10735217.
The other results are listed elsewhere or left out. Single values are uncertain here, since repeats match poorly.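 Human kidney-derived cells stably carry a construct in which eight TEAD-binding elements drive luciferase, measured by luminescence in a drug-repurposing library screen. A hit is any compound whose signal exceeds the plate mean by more than five robust Z scores.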

Tested on: HEK293A TEAD-LUC reporter
Test: TEAD-luciferase reporter activity (YAP activation), robust Z score vs plate; higher = stronger YAP/TEAD activation
Conditions: 24 h

Structure (SMILES) | TEAD-luciferase reporter activity (compound concentration: 200 nM) | TEAD-luciferase reporter activity (compound concentration: 2 uM) | TEAD-luciferase reporter activity (compound concentration: 10 uM)
C#CCOc1ccc(/C=C/C(=O)Nc2ccccc2C(=O)O)cc1OC | inactive: -1.21 | inactive: -1.77 | inactive: -1.27
CCNC(=O)CC[C@H](N)C(=O)O [L-Theanine] | inactive: 0.554 | – | inactive: 1
CCCCC/C=C\C/C=C\CCCCCCC(O)C(=O)O (configuration not stated) [Sodium 2-hydroxylinoleate] | inactive: -0.6 | inactive: 2.18 | inactive: 0.461
O=C(c1ccccc1)N1CCC(N2CCCNC2=O)CC1 | inactive: -1.29 | – | inactive: 0.145
CCCCCCCCCCCCCC[n+]1ccc(C)cc1 [Myristyl-gamma-picolinium Chloride] | inactive: 2.04 | inactive: -1.93 | inactive: -0.223
COc1cc2c(c3c1c(=O)c1cc4ccccc4cc1n3C)[C@H](O)[C@H](O)C(C)(C)O2 | inactive: -0.982 | inactive: 1.4 | inactive: 2.86
COCCNCCc1cccc(Nc2ncc3c(n2)-c2ccccc2[C@H](c2ccccc2F)C3)c1 | inactive: -0.661 | inactive: -0.498 | inactive: 1.69
C[C@]12CCC(=O)C=C1CC[C@@H]1[C@@H]2[C@@H](O)C[C@@]2(C)[C@H]1CC[C@]2(O)C(=O)COC(=O)c1ccc(CO[N+](=O)[O-])cc1 | inactive: -1.45 | inactive: 0.192 | inactive: 0.895
C/C(=C(\OCCOc1ccc(Cl)cc1)c1ccc(Cl)cc1Cl)n1ccnc1 | inactive: -0.257 | inactive: -1.67 | inactive: -1.43
O=C(C1CC1)N1CCC(C(=O)N2CCC(N3Cc4ccccc4C3=O)CC2)CC1 | inactive: -0.603 | – | inactive: 1.34
CON1CC/C(=C\c2cc(C(C)(C)C)c(O)c(C(C)(C)C)c2)C1=O | inactive: -0.513 | inactive: -1.71 | inactive: -0.604
Nc1ccc(S(=O)(=O)c2cnc(N)s2)cc1 | inactive: -0.954 | inactive: -0.602 | inactive: 2.66
COc1cccc(CN(C(=O)CC(C)(C)C)[C@H]2C[C@@H](C(=O)N3CCNCC3)N(Cc3ccc4c(c3)OCO4)C2)c1 | inactive: -0.497 | inactive: -0.175 | inactive: 1.42
COC1=C(C(=O)O)N2C(=O)[C@@H](NC(=O)[C@H](N)C3=CCC=CC3)[C@H]2SC1 | inactive: -0.304 | inactive: -0.195 | inactive: -0.735
Cc1nc(Nc2ncc(C(=O)Nc3c(C)cccc3Cl)s2)cc(N2CCN(CCO)CC2)n1 [dasatinib] | inactive: -4.55 | inactive: -2.11 | inactive: -2.58

Part of the list above, set out differently:
COc1cc2c(c3c1c(=O)c1cc4ccccc4cc1n3C)[C@H](O)[C@H](O)C(C)(C)O2
  TEAD-luciferase reporter activity (compound concentration: 200 nM): inactive: -0.982
  TEAD-luciferase reporter activity (compound concentration: 2 uM): inactive: 1.4
  TEAD-luciferase reporter activity (compound concentration: 10 uM): inactive: 2.86
COc1cccc(CN(C(=O)CC(C)(C)C)[C@H]2C[C@@H](C(=O)N3CCNCC3)N(Cc3ccc4c(c3)OCO4)C2)c1
  TEAD-luciferase reporter activity (compound concentration: 200 nM): inactive: -0.497
  TEAD-luciferase reporter activity (compound concentration: 2 uM): inactive: -0.175
  TEAD-luciferase reporter activity (compound concentration: 10 uM): inactive: 1.42
